Measurements reported in PubChem BioAssay AID686938 (Drosophila RNAi Screening Center, 2013).
Aim: 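Knock-downs reducing store-operated calcium influx in Drosophila cells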 (primary screen). System: Drosophila S2R+ cells. Reagents: long dsRNA against Drosophila genes, about 0.25 µg dsRNA per well, roughly 10,000 cells. Timing: 5 days of knock-down before the calcium assay. Conditions: thapsigargin (SERCA pump blocker) to empty calcium stores; entry signal taken 4 min after adding it. Measurement: 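Per-well fluo-4 fluorescence in two replicates, unnormalised, measured in resting cells and 4 min after store depletion by the SERCA blocker thapsigargin; ratio of the two present in few wells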. Direction: calcium entry signal: higher = stronger calcium signal after store depletion; entry to resting ratio: higher = more calcium entry relative to resting level; resting calcium signal: higher = higher resting calcium signal. Units: calcium entry signal in fluorescence units; resting calcium signal in fluorescence units. Call rule: 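Called when the plate z-score of the entry-to-rest ratio, mean of duplicates, falls below −3; wells with low overall dye signal (Fmax z below −2) or more than five off-targets excluded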. Meaning of the calls: active = strongly reduced calcium entry; inactive = no strong reduction.
The screen tested about 23,000 reagents; this is a random part of those that have a named target and a result. Over the whole deposit, 75 (0.33%) were called active. 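Raw plate signals without normalisation; calls rest on plate z-scores that were not deposited; ratio present for only 364 wells.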 Names joined by + are all predicted targets of the reagent. Reagent sequences are not shown. Not given: the dose of the treatment.

Knock-down of a5 [SID104180590] gave: calcium entry signal, replicate 1 = 3.68e7; calcium entry signal, replicate 2 = 3.75e7; resting calcium signal, replicate 1 = 1.74e7; resting calcium signal, replicate 2 = 1.59e7; inactive.
For AOX3 [SID104195747] the deposit lists calcium entry signal, replicate 1 = 3.27e7; calcium entry signal, replicate 2 = 4.62e7; resting calcium signal, replicate 1 = 1.45e7; resting calcium signal, replicate 2 = 1.88e7; inactive.
For boil [SID104197664], the values are calcium entry signal, replicate 1 = 3.60e7; calcium entry signal, replicate 2 = 3.93e7; resting calcium signal, replicate 1 = 1.73e7; resting calcium signal, replicate 2 = 1.80e7; inactive.
inaF-B + inaF-D + inaF-C + 1 more [SID104200134] showed calcium entry signal, replicate 1 = 3.80e7; calcium entry signal, replicate 2 = 3.79e7; resting calcium signal, replicate 1 = 1.79e7; resting calcium signal, replicate 2 = 1.82e7; inactive.
For CG42518 + MED9 [SID104186709] the deposit lists calcium entry signal, replicate 1 = 3.25e7; calcium entry signal, replicate 2 = 3.10e7; resting calcium signal, replicate 1 = 1.56e7; resting calcium signal, replicate 2 = 1.59e7; inactive.
Depletion of CG9436 [SID104184797] resulted in: calcium entry signal, replicate 1 = 3.97e7; resting calcium signal, replicate 1 = 1.87e7; inactive.
CG3528 [SID104180403] showed calcium entry signal, replicate 1 = 3.42e7; calcium entry signal, replicate 2 = 4.04e7; resting calcium signal, replicate 1 = 1.61e7; resting calcium signal, replicate 2 = 1.67e7; inactive.
mTor [SID104182603] showed calcium entry signal, replicate 1 = 3.65e7; resting calcium signal, replicate 1 = 1.88e7; inactive.
With knock-down of slbo [SID104184508] the results were calcium entry signal, replicate 1 = 3.51e7; calcium entry signal, replicate 2 = 2.21e7; resting calcium signal, replicate 1 = 1.85e7; resting calcium signal, replicate 2 = 1.17e7; inactive.
Depletion of pns [SID104188390] came out at: calcium entry signal, replicate 1 = 3.46e7; calcium entry signal, replicate 2 = 3.95e7; resting calcium signal, replicate 1 = 1.79e7; resting calcium signal, replicate 2 = 1.74e7; inactive.
After knock-down of CHMP2B [SID104190228], the record shows calcium entry signal, replicate 1 = 6.30e7; calcium entry signal, replicate 2 = 4.88e7; resting calcium signal, replicate 1 = 3.85e7; resting calcium signal, replicate 2 = 1.87e7; inactive.
Silencing of CG14671 [SID104192049] resulted in: calcium entry signal, replicate 1 = 4.68e7; calcium entry signal, replicate 2 = 4.06e7; resting calcium signal, replicate 1 = 2.43e7; resting calcium signal, replicate 2 = 1.90e7; inactive.
Against Taf8 [SID104200155], the values are calcium entry signal, replicate 1 = 2.44e7; calcium entry signal, replicate 2 = 1.99e7; resting calcium signal, replicate 1 = 1.33e7; resting calcium signal, replicate 2 = 9.94e6; inactive.
Ir60a [SID104184004] scored calcium entry signal, replicate 1 = 3.30e7; calcium entry signal, replicate 2 = 4.27e7; resting calcium signal, replicate 1 = 1.80e7; resting calcium signal, replicate 2 = 1.96e7; inactive.

Entries listed so far whose gene name begins with I or i:
inaF-B + inaF-D + inaF-C + 1 more [SID104200134] | calcium entry signal, replicate 1 = 3.80e7; calcium entry signal, replicate 2 = 3.79e7; resting calcium signal, replicate 1 = 1.79e7; resting calcium signal, replicate 2 = 1.82e7; activity call = inactive
Ir60a [SID104184004] | calcium entry signal, replicate 1 = 3.30e7; calcium entry signal, replicate 2 = 4.27e7; resting calcium signal, replicate 1 = 1.80e7; resting calcium signal, replicate 2 = 1.96e7; activity call = inactive

Continued.
Arf4 [SID104196987] gave calcium entry signal, replicate 1 = 4.75e7; calcium entry signal, replicate 2 = 4.59e7; entry to resting ratio 1.7; resting calcium signal, replicate 1 = 2.74e7; resting calcium signal, replicate 2 = 2.79e7; inactive.
Depletion of CG14453 [SID104191502] gave: calcium entry signal, replicate 1 = 2.04e7; calcium entry signal, replicate 2 = 3.79e7; resting calcium signal, replicate 1 = 1.07e7; resting calcium signal, replicate 2 = 1.88e7; inactive.
Silencing of CG12523 [SID104189687] came out at: calcium entry signal, replicate 1 = 2.04e7; calcium entry signal, replicate 2 = 4.01e7; resting calcium signal, replicate 1 = 1.09e7; resting calcium signal, replicate 2 = 1.87e7; inactive.
For alpha-Man-Ic [SID104201357], the values are calcium entry signal, replicate 1 = 4.28e7; calcium entry signal, replicate 2 = 3.84e7; resting calcium signal, replicate 1 = 2.28e7; resting calcium signal, replicate 2 = 1.87e7; inactive.
Silencing of swm [SID104181804] resulted in: calcium entry signal, replicate 1 = 3.38e7; calcium entry signal, replicate 2 = 3.52e7; resting calcium signal, replicate 1 = 1.65e7; resting calcium signal, replicate 2 = 1.34e7; inactive.
Knock-down of swm [SID104201479] came out at: calcium entry signal, replicate 1 = 2.41e7; calcium entry signal, replicate 2 = 3.52e7; resting calcium signal, replicate 1 = 1.44e7; resting calcium signal, replicate 2 = 2.29e7; active.
DZIP1 [SID104194412] showed calcium entry signal, replicate 1 = 3.57e7; calcium entry signal, replicate 2 = 3.74e7; resting calcium signal, replicate 1 = 1.85e7; resting calcium signal, replicate 2 = 1.60e7; inactive.
